Results from PubChem BioAssay AID2685 (National Center for Advancing Translational Sciences (NCATS), 2010).
The other results are listed elsewhere or left out. The main result of the screen is listed elsewhere. These columns were measured beside it and carry no call. Most of these compounds were active or inconclusive in the main read-out, so they are no random draw. The note in brackets gives the kind of curve behind each potency; many fits are weak.

Test: qHTS Assay for Lipid Storage Modulators in Drosophila S3 Cells;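 on cell number change: cells counted by Cell Tracker Red CMTPX staining in the red channel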
Conditions: BODIPY lipid droplet fluorescence, 18-24 h; for cell number change: measured here: cell count max response, cells fed with added oleic acid
Outline: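 Laser-scanning cytometry quantifies lipid droplet accumulation (500–530 nm total intensity; droplet/cell object ratio) in oleic acid-fed (400 uM added) Drosophila S3 cells treated with a concentration series. 20 uM Triacsin C defined 100% inhibition.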

[1] = measured here: cell number channel AC50, cells fed with added oleic acid
[2] = measured here: lipid fluorescence (Fed channel) AC50, cells fed with added oleic acid

Row | SMILES | cell number change [%] | AC50 [1] | AC50 [2]
1 | O=C(CSc1nnc2ccccn12)NCCN1C(=O)CSC1=O | -91.5 | 14.6 µM [falling, partial curve] | 29.1 µM [falling, single point]
2 | CCOC(=O)Cn1c(N2CCCCCC2)nc2c1c(=O)[nH]c(=O)n2C | -6.51 | – | 0.00731 µM [falling, full curve, poor fit]
3 | Cc1cccc(CC(C)NC(=O)c2cc(COc3ccc(C)c(C)c3)on2)n1 (configuration not stated) | -27.2 | – | –
4 | COc1ccc2cc(C(C)C(=O)OC(C)C)ccc2c1 (configuration not stated) | -39.6 | 18.4 µM [falling, single point] | 29.1 µM [falling, single point]
5 | O=C(c1cccc([N+](=O)[O-])c1)N1CCN(S(=O)(=O)N2CCCCC2)CC1 | -11.7 | 0.058 µM [falling, full curve, poor fit] | –
6 | COc1ccc(-c2csc3[nH]c(=S)n(-c4ccccc4)c(=O)c23)cc1OC | -0.862 | – | –
7 | CC1CN(c2ccc([N+](=O)[O-])cc2C#N)CC(C)O1 (configuration not stated) | 38.2 | 29.1 µM [rising, single point] | –
8 | CCCc1cc(C(N)=O)c(NC(C)=O)s1 | 2.43 | – | –
9 | Cc1ccc(N(CC(=O)NCc2cccs2)S(=O)(=O)c2cccs2)cc1 | – | 0.291 µM [rising, partial curve, poor fit] | 0.0259 µM [falling, full curve, poor fit]
10 | O=S(=O)(Nc1ccc(Br)cn1)c1cccs1 | 48.7 | 16.4 µM [rising, partial curve, poor fit] | 16.4 µM [rising, single point]
11 | Cc1ccc(S(=O)(=O)N2CC3(C)CN(S(=O)(=O)c4ccc(C)cc4)CC(C)(C2)C3O)cc1 (configuration not stated) | 5.71 | – | 2.06 µM [rising, full curve, poor fit]
12 | Cc1cc(Nc2cccc(F)c2)nc(NCc2ccccc2)n1 | -63.9 | 2.31 µM [falling, partial curve] | 4.11 µM [falling, partial curve]
13 | N#C/C(=C\c1ccc(OCCN2CCOCC2)cc1)C(=O)Nc1ccc(S(N)(=O)=O)cc1 | -0.293 | – | 6.51 µM [rising, partial curve, poor fit]
14 | O=C1c2ccccc2S(=O)(=O)N1CCOc1ccccc1 | 0.4 | – | –
15 | COc1ccc(S(=O)(=O)N2CC(C)N(C(=O)N(C)C)C2C)cc1 (configuration not stated) | 5.46 | – | 2.91 µM [falling, single point]
16 | O=C(NC(c1ccccc1)c1ccccc1)c1ccc(Br)o1 | 2.09 | – | –
17 | CCCOc1nnnn1-c1ccccc1 | -27.8 | 0.092 µM [falling, full curve, poor fit] | –
18 | O=C(c1ccc2c(c1)OCO2)N(c1ccc(F)cc1)C1C=CS(=O)(=O)C1 (configuration not stated) | -21.8 | – | 2.59 µM [rising, single point]
19 | Cn1nnc2cc(C(=O)NCCC3=CCCCC3)ccc21 | 8.06 | – | –
20 | CCOC(=O)c1sc(NNC(=O)c2ccc(F)cc2)nc1C | -33.8 | 32.6 µM [falling, single point] | –

Just cell number change [%] and AC50 [2] (4 entries from above):
Row	SMILES	cell number change [%]	AC50 [2]
1	O=C(CSc1nnc2ccccn12)NCCN1C(=O)CSC1=O	-91.5	29.1 µM [falling, single point]
2	CCOC(=O)Cn1c(N2CCCCCC2)nc2c1c(=O)[nH]c(=O)n2C	-6.51	0.00731 µM [falling, full curve, poor fit]
12	Cc1cc(Nc2cccc(F)c2)nc(NCc2ccccc2)n1	-63.9	4.11 µM [falling, partial curve]
13	N#C/C(=C\c1ccc(OCCN2CCOCC2)cc1)C(=O)Nc1ccc(S(N)(=O)=O)cc1	-0.293	6.51 µM [rising, partial curve, poor fit]

Next structures follow.

Row | SMILES | cell number change [%] | AC50 [1] | AC50 [2]
21 | Cc1oc(-c2ccccc2F)nc1CN1CCC(C(=O)NCc2ccco2)CC1 | 19.9 | – | 18.4 µM [rising, single point]
22 | COc1ccccc1N1CCN(C(=O)C(=O)c2c[nH]c3ccccc23)CC1 | 29.7 | – | 6.51 µM [rising, single point]
23 | CCN(CC)S(=O)(=O)c1ccc(/C=C/C(=O)OCC(=O)NCc2ccc3c(c2)OCO3)cc1 | – | 1.84 µM [rising, partial curve] | 2.06 µM [rising, single point]
24 | COc1ccc(CCNC(=O)CSCc2ccc([N+](=O)[O-])cc2)cc1OC | – | 6.51 µM [rising, single point] | –
25 | CCCCCc1c(C)nc(Nc2ccc(F)cc2)[nH]c1=O | -65.2 | 32.6 µM [falling, single point] | 0.206 µM [falling, full curve]
26 | Cc1nc(-c2ccc(F)cc2)c(CC(=O)N2CCN(S(=O)(=O)c3cccc([N+](=O)[O-])c3)CC2)s1 | – | 2.91 µM [rising, partial curve, poor fit] | –
27 | CCOc1ccccc1NC(=O)C(OC(=O)c1ccc(CC)cc1)c1ccccc1 (configuration not stated) | – | 2.06 µM [rising, partial curve] | 0.58 µM [rising, full curve, poor fit]
28 | COCc1nnc(NC(=O)CS(=O)(=O)Cc2ccccc2)s1 | – | – | 0.00411 µM [rising, full curve, poor fit]
29 | Cc1nnsc1SCCNC(=O)c1ccc(F)cc1 | – | – | 6.51 µM [rising, single point]
30 | COC(=O)c1ccc(NC(=O)c2cccc(N3C(=O)C4C5C=CC(C6CC56)C4C3=O)c2)cc1 (configuration not stated) | -4.86 | – | –
31 | Cc1ccccc1NC(=O)c1ccc2c(c1)OCCO2 | 10.4 | – | 9.2 µM [rising, partial curve]
32 | O=C(Nc1cccc(F)c1)NC1CC2CCCC(C1)N2C1CC1 (configuration not stated) | -7.41 | – | –
33 | Cc1cccc(NC(=O)COC(=O)CCc2c[nH]c3ccccc23)c1C | -1.69 | – | 0.146 µM [rising, full curve, poor fit]
34 | Cc1csc(NC(=O)c2cc(-c3ccco3)nc3ccccc23)n1 | -0.751 | – | 2.06 µM [falling, single point]
35 | CCN(CC(=O)NC1CCS(=O)(=O)C1)C(=O)c1ccc(OC)c([N+](=O)[O-])c1 (configuration not stated) | -43.6 | 2.91 µM [falling, full curve] | 3.66 µM [falling, full curve]
36 | CC1=C(C(=O)OCc2ccccc2)C(c2ccc(Cl)cc2)NC(=O)N1C (configuration not stated) | -32.3 | 16.4 µM [falling, partial curve, poor fit] | –
37 | NS(=O)(=O)c1ccc(Sc2ccc3c(c2)CCC3)nc1 | -1.9 | – | –
38 | CCCCN(C(=O)Cc1cccc(F)c1)c1c(N)n(CCC)c(=O)[nH]c1=O | – | – | 0.103 µM [rising, full curve, poor fit]
39 | O=C1NC(=O)/C(=C/c2ccccn2)S1 | -27.3 | 0.82 µM [falling, full curve, poor fit] | 0.82 µM [falling, full curve]
40 | O=C(CCn1c(=S)oc2ccccc21)Nc1ccc(F)cc1 | -23.4 | – | 29.1 µM [falling, single point]

Row | SMILES | cell number change [%] | AC50 [1] | AC50 [2]
41 | Cc1ccc(CN(C)C(=O)c2ccc(S(=O)(=O)N3CCCCCC3)cc2)o1 | -20.9 | – | 1.84 µM [falling, partial curve]
42 | Cc1cc(C)nc(NC(=O)c2csnn2)c1 | – | 0.731 µM [rising, single point] | –
43 | COc1ccc(N2C(=NC(=O)c3ccccc3)SC3CS(=O)(=O)CC32)cc1 (configuration not stated) | 36.5 | 29.1 µM [rising, single point] | –
44 | O=C(Nc1c2c(nn1-c1ccccc1)CS(=O)C2)c1ccc(Br)o1 (configuration not stated) | -3 | – | –
45 | COC(=O)c1ccc(NC(=O)CCc2c(C)nc3ncnn3c2C)cc1 | 27.4 | – | 16.4 µM [rising, single point]
46 | CCCN1C(=O)c2ccc(C(=O)NCc3ccco3)cc2C1=O | 154 | 18.4 µM [rising, single point] | 0.0517 µM [falling, full curve, poor fit]
47 | CCc1c(C)nc2cc(-c3cc(OC)cc(OC)c3)nn2c1N1CCN(CCN2CCOCC2)CC1 | -10.2 | – | 1.3 µM [falling, full curve, poor fit]
48 | CCc1cc(C(=O)N(CC(C)C)c2c(N)n(Cc3ccccc3)c(=O)[nH]c2=O)sc1C | -19 | – | 0.058 µM [falling, full curve, poor fit]
49 | COCCNC(=O)/C(C#N)=C/c1nc(N(C)C)n(-c2ccc(F)cc2)c1Cl | – | 0.58 µM [falling, single point] | 0.58 µM [falling, single point]
50 | NC(=O)c1c(NC(=O)Cn2cc([N+](=O)[O-])cn2)sc2c1CCCC2 | 52.1 | 3.26 µM [rising, partial curve, poor fit] | 29.1 µM [rising, single point]
51 | CCCNC(=O)Nc1ccsc1C(=O)OC | 21.6 | 6.51 µM [rising, single point] | 6.51 µM [rising, partial curve, poor fit]
52 | CCCCNc1c(-c2ccc(OC)c(SC3CCCCC3)c2)nc2cnccn12 | -61.8 | 13 µM [falling, partial curve] | –
53 | CCOC(=O)c1cnc(SC)nc1Sc1ccccc1 | 49.3 | 29.1 µM [rising, single point] | 2.59 µM [falling, partial curve]
54 | CCOC(=O)C1=CN(CC2CCCO2)C=C(C(=O)OCC)C1c1ccccc1C(F)(F)F (configuration not stated) | -31.1 | 29.1 µM [falling, single point] | –
55 | Cc1nn(CC(=O)N2CCC(N3CCCCC3)CC2)c(=O)c2c1sc1ccccc12 | 0.306 | – | 29.1 µM [rising, single point]
56 | COCCNC(=O)c1ccc2c(c1)nc(C)n2-c1cccc(Cl)c1 | 15.8 | – | 5.17 µM [rising, full curve, poor fit]
57 | CC(=O)Nc1ccc2[nH]c(C)c(CC=C(Cl)Cl)c(=O)c2c1 | – | – | 3.26 µM [rising, partial curve]
58 | Cc1nnc(SCC(=O)N2c3ccccc3CC2C)[nH]c1=O (configuration not stated) | 12.9 | – | –
59 | COc1ccccc1NC(=O)c1ccc(-c2ccc(Br)cc2)o1 | -66.5 | 29.1 µM [falling, single point] | 3.66 µM [rising, single point]
